Measured values as given in PubChem BioAssay AID540303 (National Center for Advancing Translational Sciences (NCATS), 2011).
Among all 330,000 compounds or so, about 1,000 (0.3%) were called active. Inconclusive means that the source gave no clear call. Such entries were picked first, then a sample of the others. Calls come from the whole dose curve; as a rule, active = well fitted inhibition curve with a large enough effect; inconclusive = small, poorly fitted or top-dose-only effect; inactive = no such curve, though single readings can be large or run the other way; tested in mouse RAW 264.7 cells. Potencies beside an inconclusive call are fits to weak or partial responses and may not hold up.

experiment: qHTS for Inhibitors of Cell Surface uPA Generation; settings: cell surface uPA generation assay; series mostly up to 38.3 µM; note: nearly all actives have a fitted effect of over 55% in size
Outline: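 RAW 264.7 cells (4000/well) were plated overnight at 37 C and then given compounds in a 1:5 series (up to 38.3 uM final) plus reagent for 24 h. Intracellular ATP was measured by ATP-Lite luminescence and stays elevated when uPA-dependent LF entry is blocked.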
Potency is the fitted concentration of half-maximal effect.

SMILES	Potency
Cc1ccc(CCC(=O)Nc2ccc(Br)cc2)o1	inconclusive: 8.91 µM [inhibitor, partial curve, poor fit]
O=C(NCc1ccco1)c1cccc2c1C(=O)c1ccc(N3CCC(Cc4ccccc4)CC3)cc1S2(=O)=O	inconclusive: 3.55 µM [inhibitor, partial curve, poor fit]
COc1ccc(CNC(=O)CC23CC4CC(CC(C4)C2)C3)cc1OC	inactive
COc1cc2c(cc1OC)C(C)N(C(=O)c1c(C)noc1C)CC2 (configuration not stated)	active: 5.01 µM
Cc1ccc(NS(=O)(=O)c2cc3c4c(cccc4c2)C(=O)NC3=O)cc1C	inactive
Cc1cccc(N(C)S(=O)(=O)c2ccc(-c3cc(C)no3)s2)c1	inconclusive: 0.562 µM [inhibitor, full curve, poor fit]
CCC1CCCCN1S(=O)(=O)c1ccc(C(=O)Nc2nnc(C3=COCCO3)o2)cc1 (configuration not stated)	inconclusive: 12.6 µM [inhibitor, single point]
CC(C)(C)c1ccc(OCCNCc2ccccc2)cc1	inactive
Nc1nn(-c2ccccc2)c(N)c1N=Nc1ccccc1	active: 5.01 µM
COc1ccc(/C=N/NC(=O)c2ccc3nc[nH]c3c2)c(OC)c1	inconclusive: 1.12 µM [inhibitor, full curve, poor fit]
Cc1cccc(NC(=O)Nc2ccc3c(c2)OCO3)n1	inconclusive: 7.08 µM [inhibitor, partial curve]
COc1ccccc1CNS(=O)(=O)c1cc(C)ccc1OC	inactive
CCOc1ccc(CNC(=O)CS(=O)(=O)Cc2nc(-c3ccc(OC)cc3)oc2C)cc1	inconclusive: 0.708 µM [inhibitor, partial curve, poor fit]
COc1ccc(N(S(=O)(=O)c2ccccc2)S(=O)(=O)c2ccccc2)c(N)c1	inconclusive: 5.01 µM [inhibitor, partial curve, poor fit]
O=C(C[n+]1ccccc1)NNc1ccccc1	inconclusive: 11.2 µM [inhibitor, partial curve]
Cc1ccc(-c2nn(-c3ccccc3)cc2/C=C/C(=O)Nc2cccc(S(N)(=O)=O)c2)cc1	inconclusive: 12.6 µM [inhibitor, single point]
Cc1ccc(NC(=O)c2ccc(-c3nn(C)c(=O)c4ccccc34)cc2)cc1	inactive
COC(=O)c1ccc(COc2ccccc2[N+](=O)[O-])o1	inconclusive: 0.891 µM [inhibitor, partial curve, poor fit]
CCCNC(=S)Nc1ccc(Cl)cc1Cl	inactive
O=C(Nc1cccc(S(=O)(=O)N2CCOCC2)c1)c1ccc(Cl)nc1	inconclusive: 11.2 µM [inhibitor, partial curve, poor fit]
COc1ccc(CC(=O)Nc2c(C(=O)N3CCN(c4ncccn4)CC3)oc3ccccc23)cc1	inactive
Cc1ccc(C(=O)N2CCN(C)CC2)cc1S(=O)(=O)N1CCOCC1	inconclusive: 3.16 µM [inhibitor, single point]
CCN(CC)c1ccc2oc(=O)c(C)nc2c1	inconclusive: 10 µM [inhibitor, partial curve, poor fit]

SMILES	Potency
COc1cc(C(=O)NCC(c2cccs2)N2CCOCC2)cc(Br)c1OCc1ccccc1 (configuration not stated)	inconclusive: 11.2 µM [inhibitor, partial curve, poor fit]
CCN1CCN(c2ccc(N=Cc3ccccc3O)cc2)CC1	inconclusive: 10 µM [inhibitor, partial curve]
N#Cc1ccc(-c2ccc(OCC(O)CN3CCOCC3)cc2)cc1 (configuration not stated)	inconclusive: 12.6 µM [inhibitor, single point]
O=C(NCCN1C(=O)S/C(=C\c2ccc(Cl)cc2)C1=O)c1ccc(F)c(S(=O)(=O)N2CCOCC2)c1	inactive
O=C(NCCc1c[nH]c2ccccc12)C(=O)Nc1ccccc1	inconclusive: 7.94 µM [inhibitor, partial curve, poor fit]
Cc1ccc(C)c(Sc2ccc(NC(=O)CCN3C(=O)NC4(CCCC4)C3=O)cc2)c1	inconclusive: 10 µM [inhibitor, single point]
Cc1cccc(OCCn2c(=O)n(C)c3ccccc32)c1	inconclusive: 28.2 µM [inhibitor, single point]
CCc1cc2c(COC(=O)c3cc(S(=O)(=O)N4CCOCC4)ccc3F)cc(=O)oc2cc1O	inconclusive: 28.2 µM [inhibitor, single point]
CC[C@]12c3[nH]c4ccc(Cl)cc4c3CCN1C(=O)[C@@H](CC(=O)NCC13CC4CC(CC(C4)C1)C3)C[C@@H]2C(=O)N1CCN(C(=O)c2ccco2)CC1	inconclusive: 10 µM [inhibitor, single point]
C[C@@H]1CN([C@H](C)CO)C(=O)c2cccc(NC(=O)NC3CCCCC3)c2O[C@@H]1CN(C)C(=O)Nc1ccc(C(F)(F)F)cc1	inconclusive: 12.6 µM [inhibitor, single point]
NC(=O)C1CCN(C(=S)c2ccc(-c3ccc(Br)cc3)o2)CC1	inactive
CCn1ccc(C(=O)Nc2ncc(C)s2)n1	inconclusive: 10 µM [inhibitor, single point]
Cc1ccc(-n2c(C)cc(/C=C3\SC(=O)NC3=O)c2C)cc1	inconclusive: 5.62 µM [inhibitor, partial curve, poor fit]
NNc1nc(-c2ccccc2)cc(-c2ccccc2)n1	inconclusive: 8.91 µM [inhibitor, single point]
Oc1ccc(/C=C/c2ccc3cccc(O)c3n2)cc1Br	inconclusive: 10 µM [inhibitor, single point]
CN(c1ccccc1)S(=O)(=O)c1cccc(NC(=O)c2nn(C)c(=O)c3ccccc23)c1	inconclusive: 5.01 µM [inhibitor, partial curve, poor fit]
COc1ccc(/C=C/c2ccccc2)cc1[C@H]1[C@H]2C=CC[C@@H](C)[C@@H]2C(=O)N1Cc1ccccc1	inconclusive: 28.2 µM [inhibitor, single point]
CC(C)C[C@H]1CN=C(Nc2ccccc2)N1CC1CCCCCC1	inconclusive: 12.6 µM [inhibitor, single point]
N=c1c2c(n(Cc3ccc(F)cc3)c3c1CCC3)CCCC2	inconclusive: 5.01 µM [inhibitor, partial curve, poor fit]
Cc1cc(=O)oc2cc(OCCSc3nnc(-c4ccccc4)o3)ccc12	inactive
CC(N=c1ccccn1C(=O)Nc1ccc(Cl)cc1)c1ccco1 (configuration not stated)	inactive
CCCCC1C(=O)CC[C@H]2[C@@H]1CC(=O)[C@@H]2C/C=C\CCCC(=O)O (some centres not stated)	inconclusive: 8.91 µM [inhibitor, single point]
O=C1N[C@@H](Cc2ccccc2)COC(=O)[C@H](Cc2ccc(F)cc2)CC/C=C/C[C@@H]1CC(=O)N(CCO)Cc1ccccc1	inconclusive: 11.2 µM [inhibitor, partial curve, poor fit]

Quoted from the listing:
Value of Cc1cc(=O)oc2cc(OCCSc3nnc(-c4ccccc4)o3)ccc12 under Potency: inactive
Value of CC[C@]12c3[nH]c4ccc(Cl)cc4c3CCN1C(=O)[C@@H](CC(=O)NCC13CC4CC(CC(C4)C1)C3)C[C@@H]2C(=O)N1CCN(C(=O)c2ccco2)CC1 under Potency: inconclusive: 10 µM [inhibitor, single point]
Value of CCN1CCN(c2ccc(N=Cc3ccccc3O)cc2)CC1 under Potency: inconclusive: 10 µM [inhibitor, partial curve]

An excerpt of these results, bar-delimited:
SMILES | Potency
CCCCC1C(=O)CC[C@H]2[C@@H]1CC(=O)[C@@H]2C/C=C\CCCC(=O)O (some centres not stated) | inconclusive: 8.91 µM [inhibitor, single point]
O=C1N[C@@H](Cc2ccccc2)COC(=O)[C@H](Cc2ccc(F)cc2)CC/C=C/C[C@@H]1CC(=O)N(CCO)Cc1ccccc1 | inconclusive: 11.2 µM [inhibitor, partial curve, poor fit]

Later entries

SMILES	Potency
CCn1c(=O)c2cc(S(=O)(=O)NCc3ccccc3)ccc2n(CC)c1=O	inconclusive: 12.6 µM [inhibitor, single point]
CCc1ccc(C(N)=S)cc1	inactive
Cc1ccc(C(=O)Nc2ncc(Cc3ccc(SC(F)F)cc3)s2)cc1	inconclusive: 0.891 µM [inhibitor, full curve, poor fit]
Cc1ccc(N2C(=O)CC(Sc3nc(C)cc(C)n3)C2=O)cc1 (configuration not stated)	active: 5.01 µM
Nc1nc(SCC(=O)c2c(N)n(C3CC3)c(=O)[nH]c2=O)n[nH]1	inactive
O=C(CCS(=O)(=O)c1ccccc1)Nc1nc2c(s1)COc1ccccc1-2	inconclusive: 0.562 µM [inhibitor, partial curve, poor fit]
Cc1cc(N)n(-c2nc3ccccc3s2)n1	inconclusive: 12.6 µM [inhibitor, partial curve]
CCCCCCC[N+](CC)(CC)CCCCc1ccc(Cl)cc1	inconclusive: 2.51 µM [inhibitor, full curve, poor fit]
CC(C)CN1CCCC(N2CCN(c3cccc(Cl)c3)CC2)C1 (configuration not stated)	inactive
COc1ccccc1NS(=O)(=O)c1cccc(NC(=O)c2nn(C)c(=O)c3ccccc23)c1	inconclusive: 11.2 µM [inhibitor, partial curve, poor fit]
CC(=O)N1CCN(C(=S)c2ccc([N+](=O)[O-])cc2)CC1	inactive
Cc1ccc(C)c(NC(=O)C2CC3CCC2C3)c1 (configuration not stated)	inconclusive: 5.01 µM [inhibitor, partial curve, poor fit]
CCc1cccc(NC(=O)c2cnn(-c3ccccc3)c2C)c1	inconclusive: 2 µM [inhibitor, full curve]
CNCCCC1c2ccccc2C=Cc2ccccc21	inconclusive: 1.12 µM [inhibitor, full curve, poor fit]
CC(C)COC(=O)CNc1n[nH]c(=S)[nH]c1=O	inactive
O=C1C=CC(=O)c2c(O)c(N3CCN(CCO)CC3)c(Cl)c(O)c21	inactive
O=C1CC(c2ccc3c(c2)OCCO3)Oc2ccc([N+](=O)[O-])cc21 (configuration not stated)	active: 10 µM
COc1ccc2nc(C)cc(SCC(=O)N3CCCCC3)c2c1	inconclusive: 1.26 µM [inhibitor, full curve, poor fit]
Cc1nc2ccccc2c(=O)n1NC(=O)c1ccc(C(C)(C)C)cc1	inactive
O=C(NCc1ccco1)c1ccc(Cn2c(=O)c3sccc3n(Cc3ccc(F)cc3)c2=O)cc1	inconclusive: 12.6 µM [inhibitor, single point]
CCOC(=O)c1c(C)[nH]c(C(=O)OCc2ccccc2)c1C	inconclusive: 5.62 µM [inhibitor, single point]
